PubChem BioAssay AID652259 | Drosophila RNAi Screening Center – 2013

Test: 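Identify new Wingless signalling regulators in fly cells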 (primary screen)
Cells: Drosophila clone 8 imaginal disc epithelial cells
Reagent: long dsRNA against Drosophila genes
Challenge: pathway stimulated by co-transfected Wingless expression plasmid
Read-out: 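Firefly luciferase from a tcf-site Wingless reporter, measured alongside co-transfected Renilla luciferase that tracks transfection; pathway stimulated by a Wingless plasmid; the firefly-to-Renilla ratio is not deposited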
Reading the numbers: firefly reporter light: higher = more Wg reporter light, before normalisation; Renilla control light: higher = more transfected or surviving cells
Active means: 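a knock-down is a candidate when at least two out of four statistical tests show it departing from its plate mean; one test alone signals a weak candidate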
Calls: active = candidate regulator (raises or lowers reporter); inactive = not a candidate
The deposit covers about 22,000 reagents; shown is a random part of those with a known target gene and a result. In the full data, 233 (1.1%) got an active call. 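Light values are raw, unnormalised plate reads; the ratio scores behind the reporter calls were not deposited.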 No sequences are given here. Not given: the amount of reagent, the time to read-out, the dose of the treatment.

{"target gene": "Ugt317A1 (GeneID 37590)", "dsRNA": "DRSC04470", "firefly reporter light, replicate 1": 3285, "firefly reporter light, replicate 2": 8120, "Renilla control light, replicate 1": 944, "Renilla control light, replicate 2": 3312, "call": "inactive"}
{"target gene": "skd (GeneID 43906)", "dsRNA": "DRSC11898", "firefly reporter light, replicate 1": 12637, "Renilla control light, replicate 1": 4836, "call": "inactive"}
{"target gene": "lncRNA:CR43434 (GeneID 12798271)", "dsRNA": "DRSC13766", "firefly reporter light, replicate 1": 3168, "Renilla control light, replicate 1": 1106, "call": "inactive"}
{"target gene": "CG8642 (GeneID 35845)", "dsRNA": "DRSC07228", "firefly reporter light, replicate 1": 3482, "firefly reporter light, replicate 2": 9623, "Renilla control light, replicate 1": 1127, "Renilla control light, replicate 2": 2723, "call": "inactive"}
{"target gene": "BomS5 (GeneID 50207)", "dsRNA": "DRSC22306", "firefly reporter light, replicate 1": 3.10e5, "firefly reporter light, replicate 2": 3.33e5, "Renilla control light, replicate 1": 1.30e5, "Renilla control light, replicate 2": 1.29e5, "call": "inactive"}
{"target gene": "CG11438 (GeneID 40469)", "dsRNA": "DRSC11660", "firefly reporter light, replicate 1": 19856, "Renilla control light, replicate 1": 5712, "call": "inactive"}
{"target gene": "RpL40 (GeneID 33629)", "dsRNA": "DRSC00782", "firefly reporter light, replicate 1": 3801, "firefly reporter light, replicate 2": 7482, "Renilla control light, replicate 1": 866, "Renilla control light, replicate 2": 1424, "call": "inactive"}
{"target gene": "CG18748 (GeneID 59144)", "dsRNA": "DRSC15385", "firefly reporter light, replicate 1": 14345, "Renilla control light, replicate 1": 4214, "call": "inactive"}

Quoted from the listing for reference:
{"target gene": "CG8642 (GeneID 35845)", "dsRNA": "DRSC07228", "firefly reporter light, replicate 1": 3482, "firefly reporter light, replicate 2": 9623, "Renilla control light, replicate 1": 1127, "Renilla control light, replicate 2": 2723, "call": "inactive"}
{"target gene": "BomS5 (GeneID 50207)", "dsRNA": "DRSC22306", "firefly reporter light, replicate 1": 3.10e5, "firefly reporter light, replicate 2": 3.33e5, "Renilla control light, replicate 1": 1.30e5, "Renilla control light, replicate 2": 1.29e5, "call": "inactive"}
{"target gene": "CG11438 (GeneID 40469)", "dsRNA": "DRSC11660", "firefly reporter light, replicate 1": 19856, "Renilla control light, replicate 1": 5712, "call": "inactive"}

Continued:
{"target gene": "Cdc50 (GeneID 32615)", "dsRNA": "DRSC20224", "firefly reporter light, replicate 1": 15024, "Renilla control light, replicate 1": 7234, "call": "inactive"}
{"target gene": "CG2852 (GeneID 37591)", "dsRNA": "DRSC04321", "firefly reporter light, replicate 1": 2290, "firefly reporter light, replicate 2": 6710, "Renilla control light, replicate 1": 749, "Renilla control light, replicate 2": 3160, "call": "inactive"}
{"target gene": "mRpL18 (GeneID 36406)", "dsRNA": "DRSC06142", "firefly reporter light, replicate 1": 9661, "Renilla control light, replicate 1": 3184, "call": "inactive"}
{"target gene": "Edg78E (GeneID 40354)", "dsRNA": "DRSC11863", "firefly reporter light, replicate 1": 16979, "Renilla control light, replicate 1": 5936, "call": "inactive"}
{"target gene": "Dic3 (GeneID 35763)", "dsRNA": "DRSC06058", "firefly reporter light, replicate 1": 4005, "firefly reporter light, replicate 2": 8445, "Renilla control light, replicate 1": 1274, "Renilla control light, replicate 2": 3537, "call": "inactive"}
{"target gene": "CG5805 (GeneID 42950)", "dsRNA": "DRSC15878", "firefly reporter light, replicate 1": 3061, "firefly reporter light, replicate 2": 4512, "Renilla control light, replicate 1": 1526, "Renilla control light, replicate 2": 1734, "call": "inactive"}
{"target gene": "CG7997 (GeneID 36829)", "dsRNA": "DRSC07052", "firefly reporter light, replicate 1": 14393, "Renilla control light, replicate 1": 4441, "call": "inactive"}
{"target gene": "CG2577 (GeneID 32188)", "dsRNA": "DRSC19863", "reporter change call, replicate 1": "Wg reporter activity raised", "firefly reporter light, replicate 1": 57717, "Renilla control light, replicate 1": 7579, "call": "active"}
{"target gene": "CG12746 (GeneID 40672)", "dsRNA": "DRSC12218", "firefly reporter light, replicate 1": 8396, "Renilla control light, replicate 1": 2663, "call": "inactive"}
{"target gene": "CG34326 (retired record) (GeneID 5740223)", "dsRNA": "DRSC19165", "firefly reporter light, replicate 1": 4704, "Renilla control light, replicate 1": 1728, "call": "inactive"}
{"target gene": "CycE (GeneID 34924)", "dsRNA": "DRSC03295", "firefly reporter light, replicate 1": 5028, "Renilla control light, replicate 1": 1627, "call": "inactive"}
{"target gene": "CycE (GeneID 34924)", "dsRNA": "DRSC03296", "firefly reporter light, replicate 1": 2560, "firefly reporter light, replicate 2": 4845, "Renilla control light, replicate 1": 1127, "Renilla control light, replicate 2": 2628, "call": "inactive"}
{"target gene": "CG17570 (GeneID 35410)", "dsRNA": "DRSC01770", "firefly reporter light, replicate 1": 18934, "Renilla control light, replicate 1": 9959, "call": "inactive"}
{"target gene": "CG17570 (GeneID 35410)", "dsRNA": "DRSC03754", "firefly reporter light, replicate 1": 1683, "firefly reporter light, replicate 2": 3097, "Renilla control light, replicate 1": 593, "Renilla control light, replicate 2": 1784, "call": "inactive"}
{"target gene": "CG4686 (GeneID 42361)", "dsRNA": "DRSC15622", "firefly reporter light, replicate 1": 22844, "Renilla control light, replicate 1": 5604, "call": "inactive"}
{"target gene": "TotZ (GeneID 117459)", "dsRNA": "DRSC13450", "firefly reporter light, replicate 1": 3113, "Renilla control light, replicate 1": 1500, "call": "inactive"}
{"target gene": "CG14180 (retired record) (GeneID 39101)", "dsRNA": "DRSC10179", "firefly reporter light, replicate 1": 7462, "Renilla control light, replicate 1": 1780, "call": "inactive"}
